PubChem BioAssay AID1259405, NCATS – 2018
The deposit covers about 50,000 reagents; this is a part drawn at random. About 4,000 of all reagents (8%) count as active. 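Mouse siRNA library applied to hamster cells; one well for each siRNA.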 Unmarked entries are inactive. Reagents against one gene are numbered here. Reagent sequences are not shown.

Screen: 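Mouse-designed siRNAs used to find CHO productivity engineering targets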 (primary screen)
System: Chinese hamster CHO-K1 ovary cells with stable secreted eGFP expression
Reagents: single siRNA against mouse genes, 0.8 pmol siRNA per well (2 µl of 400 nM stock)
Timing: 3 days
Read-out: 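Per-well intracellular GFP measured by laser scanning cytometry, plus viability from ATP luminescence, each relative to plate median of non-targeting control wells, in %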
Direction: GFP, % of control: higher = more GFP per well, higher productivity; viability (ATP), % of control: higher = more viable cells (more ATP)
Hit rule: 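a knock-down is called active if GFP reaches 120% or more of non-targeting control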

For Cxxc4 (CXXC finger 4) #1 the deposit lists GFP, % of control 71.6; viability (ATP), % of control 76.1.
Depletion of Cxxc4 (CXXC finger 4) #2 gave: GFP, % of control 75.2; viability (ATP), % of control 84.
Cxxc4 (CXXC finger 4) #3 showed GFP, % of control 53.7; viability (ATP), % of control 59.4.
For Gfod2 (glucose-fructose oxidoreductase domain containing 2) #1 the deposit lists GFP, % of control 54.5; viability (ATP), % of control 49.4.
Silencing of Gfod2 (glucose-fructose oxidoreductase domain containing 2) #2 resulted in: GFP, % of control 88.8; viability (ATP), % of control 75.2.
For Gfod2 (glucose-fructose oxidoreductase domain containing 2) #3, the values are GFP, % of control 111; viability (ATP), % of control 102.
For Gnpat (glyceronephosphate O-acyltransferase) #1 the deposit lists GFP, % of control 108; viability (ATP), % of control 94.6.
Silencing of Gnpat (glyceronephosphate O-acyltransferase) #2 resulted in: GFP, % of control 41.5; viability (ATP), % of control 68.4.
Depletion of Gnpat (glyceronephosphate O-acyltransferase) #3 came out at: GFP, % of control 99.3; viability (ATP), % of control 97.9.
Silencing of Il21 (interleukin 21) #1 resulted in: GFP, % of control 80; viability (ATP), % of control 99.6.
After knock-down of Il21 (interleukin 21) #2, the record shows GFP, % of control 38.4; viability (ATP), % of control 42.9.
Il21 (interleukin 21) #3 scored GFP, % of control 50.3; viability (ATP), % of control 54.8.
Or1e17 (olfactory receptor family 1 subfamily E member 17) #1 showed GFP, % of control 74.3; viability (ATP), % of control 62.6.
Knock-down of Or1e17 (olfactory receptor family 1 subfamily E member 17) #2 gave: GFP, % of control 113; viability (ATP), % of control 66.1.
Or1e17 (olfactory receptor family 1 subfamily E member 17) #3 scored GFP, % of control 41.7; viability (ATP), % of control 80.4.
For Gcnt1 (glucosaminyl (N-acetyl) transferase 1, core 2) #1, the entry reads GFP, % of control 137 (active); viability (ATP), % of control 111.
Silencing of Gcnt1 (glucosaminyl (N-acetyl) transferase 1, core 2) #2 came out at: GFP, % of control 57.1; viability (ATP), % of control 84.9.
For Gcnt1 (glucosaminyl (N-acetyl) transferase 1, core 2) #3 the deposit lists GFP, % of control 78.5; viability (ATP), % of control 83.
For Il2rb (interleukin 2 receptor, beta chain) #1, the entry reads GFP, % of control 102; viability (ATP), % of control 102.
Il2rb (interleukin 2 receptor, beta chain) #2 scored GFP, % of control 87.5; viability (ATP), % of control 77.
For Il2rb (interleukin 2 receptor, beta chain) #3, the entry reads GFP, % of control 101; viability (ATP), % of control 66.6.
Knock-down of Ficd (FIC domain containing) #1 resulted in: GFP, % of control 71.1; viability (ATP), % of control 62.9.
Against Ficd (FIC domain containing) #2, the entry reads GFP, % of control 147 (active); viability (ATP), % of control 74.7.
Ficd (FIC domain containing) #3 scored GFP, % of control 110; viability (ATP), % of control 98.3.
Opa1 (OPA1, mitochondrial dynamin like GTPase) #1 showed GFP, % of control 66.4; viability (ATP), % of control 63.4.
Opa1 (OPA1, mitochondrial dynamin like GTPase) #2 gave GFP, % of control 66.7; viability (ATP), % of control 84.9.
Opa1 (OPA1, mitochondrial dynamin like GTPase) #3 showed GFP, % of control 50.6; viability (ATP), % of control 30.9.
Tssk2 (testis-specific serine kinase 2) gave GFP, % of control 88; viability (ATP), % of control 71.2.
For Or2ad1 (olfactory receptor family 2 subfamily AD member 1) #1, the entry reads GFP, % of control 58.1; viability (ATP), % of control 74.2.
Depletion of Or2ad1 (olfactory receptor family 2 subfamily AD member 1) #2 gave: GFP, % of control 59; viability (ATP), % of control 65.3.
Or2ad1 (olfactory receptor family 2 subfamily AD member 1) #3 gave GFP, % of control 43.8; viability (ATP), % of control 76.
Against Iscu (iron-sulfur cluster assembly enzyme) #1, the values are GFP, % of control 118; viability (ATP), % of control 86.8.
Knock-down of Iscu (iron-sulfur cluster assembly enzyme) #2 resulted in: GFP, % of control 88.5; viability (ATP), % of control 58.9.
Depletion of Iscu (iron-sulfur cluster assembly enzyme) #3 gave: GFP, % of control 66.6; viability (ATP), % of control 61.9.
For Krtap4-2 (keratin associated protein 4-2) #1, the values are GFP, % of control 49.8; viability (ATP), % of control 58.
Krtap4-2 (keratin associated protein 4-2) #2 showed GFP, % of control 67.7; viability (ATP), % of control 83.5.
Krtap4-2 (keratin associated protein 4-2) #3 gave GFP, % of control 64.4; viability (ATP), % of control 90.3.
Snx16 (sorting nexin 16) gave GFP, % of control 142 (active); viability (ATP), % of control 72.4.
Against Grpr (gastrin releasing peptide receptor) #1, the entry reads GFP, % of control 82.3; viability (ATP), % of control 82.4.
For Grpr (gastrin releasing peptide receptor) #2, the entry reads GFP, % of control 74.3; viability (ATP), % of control 88.2.
Grpr (gastrin releasing peptide receptor) #3 showed GFP, % of control 100; viability (ATP), % of control 93.3.

Looked up above.
Ficd (FIC domain containing) #2, GFP, % of control = 147 (active)
Value of Grpr (gastrin releasing peptide receptor) #2 in “viability (ATP), % of control”: 88.2
Under “GFP, % of control”, Grpr (gastrin releasing peptide receptor) #3 has 100
Under “GFP, % of control”, Cxxc4 (CXXC finger 4) #2 has 75.2
Under “viability (ATP), % of control”, Iscu (iron-sulfur cluster assembly enzyme) #2 has 58.9
